Drawing on article PMC9266818, this text covers binding for one molecule.

Sequences of proteins named here, by UniProt entry; tags and fusion partners are left off.
UniProt P06493: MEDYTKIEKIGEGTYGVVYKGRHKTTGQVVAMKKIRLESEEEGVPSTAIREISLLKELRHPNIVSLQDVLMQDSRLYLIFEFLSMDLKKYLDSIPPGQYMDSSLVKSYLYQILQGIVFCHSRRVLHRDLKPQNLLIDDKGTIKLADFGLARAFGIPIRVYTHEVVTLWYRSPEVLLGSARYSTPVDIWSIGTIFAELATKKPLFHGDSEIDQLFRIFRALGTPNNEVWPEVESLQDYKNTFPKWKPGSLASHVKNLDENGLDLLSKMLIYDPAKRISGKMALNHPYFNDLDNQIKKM

The target of this test is CDK1 (cyclin-dependent kinase 1), endogenous in UM1 cells (human (endogenous in UM1)) (UniProt P06493). Put plainly: co-IP; UM1 cell lysate, endogenous proteins; IP with anti-∆Np63α or anti-CDK1, homologous IgG as controls; immunoblot. For orientation: Immunoblotting shows a protein as a band on a membrane.

These are yes or no findings as the source states them, for the method shown. In cells and extracts the contact can be indirect. Some binding calls cover weakened binding; strength is not graded here.

B1: ∆Np63α, endogenous in UM1 cells (protein, UniProt Q9H3D4-2 1-586)
chain: MLYLENNAQTQFSEPQYTNLGLLNSMDQQIQNGSSSTSPYNTDHAQNSVTAPSPYAQPSSTFDALSPSPAIPSNTDYPGPHSFDVSFQQSSTAKSATWTYSTELKKLYCQIAKTCPIQIKVMTPPPQGAVIRAMPVYKKAEHVTEVVKRCPNHELSREFNEGQIAPPSHLIRVEGNSHAQYVEDPITGRQSVLVPYEPPQVGTEFTTVLYNFMCNSSCVGGMNRRPILIIVTLETRDGQVLGRRCFEARICACPGRDRKADEDSIRKQQVSDSTKNGDGTKRPFRQNTHGIQMTSIKKRRSPDDELLYLPVRGRETYEMLLKIKESLELMQYLPQHTIETYRQQQQQQHQHLLQKQTSIQSPSSYGNSSPPLNKMNSMNKLPSVSQLINPQQRNALTPTTIPDGMGANIPMMGTHMPMAGDMNGLSPTQALPPPLSMPSTSHCTPPPPYPTDCSIVSFLARLGCSSCLDYFTTQGLTTIYQIEHYSMDDLASLKIPEQFRHAIWKGILDHRQLHEFSSPSHLLRTPSSASTVSVGSSETRGERVIDAVRFTLRQTISFPPRDEWNDFNFDMDARRNKQQRIKEEGE
Take B1: the binding result was “binds”.
